# Laboratory results: the supplement of paper PMC4604168 (melanoma cell lines)
# The other results are listed elsewhere or left out. Many values rest on one well or one pass, so single values are uncertain.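 The apoptosis fraction was the count of cleaved-PARP antibody-stained nuclei relative to all DNA-stained nuclei, imaged in 1,536-well plates. Screening doses were set so most cells survived, and baseline and induced cleaved-PARP levels vary greatly across cell lines.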
# Experiments:
# Assay in all cases: cleaved PARP positive nuclei fraction relative to DMSO control; melanoma cells; higher = more apoptosis
# Conditions in all cases: library dose: low library concentration; 72 h
# MZ2-MEL = test system: MZ2-MEL
# MeWo = test system: MeWo
# RPMI7951 = test system: RPMI7951
# RVH-421 = test system: RVH-421
# SkMel28 = test system: SkMel28
# SkMel2 = test system: SkMel2
# SkMel30 = test system: SkMel30
# SkMel5 = test system: SkMel5
# UACC257 = test system: UACC257
# UACC62 = test system: UACC62
# WM115 = test system: WM115
# WM1716 = test system: WM1716
# WM1745 = test system: WM1745
# WM3526 = test system: WM3526
# WM3619 = test system: WM3619
# WM451Lu = test system: WM451Lu
SMILES,cleaved PARP positive nuclei fraction (MZ2-MEL),cleaved PARP positive nuclei fraction (MeWo),cleaved PARP positive nuclei fraction (RPMI7951),cleaved PARP positive nuclei fraction (RVH-421),cleaved PARP positive nuclei fraction (SkMel28),cleaved PARP positive nuclei fraction (SkMel2),cleaved PARP positive nuclei fraction (SkMel30),cleaved PARP positive nuclei fraction (SkMel5),cleaved PARP positive nuclei fraction (UACC257),cleaved PARP positive nuclei fraction (UACC62),cleaved PARP positive nuclei fraction (WM115),cleaved PARP positive nuclei fraction (WM1716),cleaved PARP positive nuclei fraction (WM1745),cleaved PARP positive nuclei fraction (WM3526),cleaved PARP positive nuclei fraction (WM3619),cleaved PARP positive nuclei fraction (WM451Lu)
"Nc1ncn([C@H]2C[C@H](O)[C@@H](CO)O2)c(=O)n1 [decitabine] + CN(C)S(=O)(=O)c1ccc2c(c1)/C(=C/c1cc3c([nH]1)CCCC3)C(=O)N2 [SU6656] (first compound 0.1 µM, partner dose 0.4 µM)",182%,148%,47.3%,44.1%,42.7%,39.3%,123%,32.4%,85%,168%,83.7%,53%,110%,70.4%,115%,351%
"CN1CCN(c2ccc3nc(-c4c(N)c5c(F)cccc5[nH]c4=O)[nH]c3c2)CC1 [Dovitinib] + Cn1cncc1[C@@](N)(c1ccc(Cl)cc1)c1ccc2c(c1)c(-c1cccc(Cl)c1)cc(=O)n2C [tipifarnib] (first compound 0.1 µM, partner dose 0.01 µM)",70.5%,234%,154%,73.7%,42.7%,73.4%,85.5%,33.2%,199%,138%,220%,76.1%,111%,86.9%,87.5%,91.5%
"Cc1cc(Nc2cc(N3CCN(C)CC3)nc(/C=C/c3ccccc3)n2)n[nH]1 + O=C1NC(=O)/C(=C/c2ccc(-c3ccc(F)cc3O)o2)S1 [AS252424] (first compound 0.04 µM, partner dose 1 µM)",77.8%,91.8%,43.5%,33.7%,166%,86.1%,44.4%,72.1%,355%,126%,133%,126%,91.9%,156%,78.5%,130%
"CS(=O)(=O)CCNCc1ccc(-c2ccc3ncnc(Nc4ccc(OCc5cccc(F)c5)c(Cl)c4)c3c2)o1 [lapatinib] + c1cc(-c2cnn3cc(-c4ccc(OCCN5CCCCC5)cc4)cnc23)ccn1 [Dorsomorphin] (first compound 0.8 µM, partner dose 0.4 µM)",116%,128%,83.2%,25.1%,28.3%,110%,77.4%,97.8%,207%,132%,65.7%,88.1%,110%,71.4%,84.9%,59.4%
"CNC(=O)c1cc(Oc2ccc(NC(=O)Nc3ccc(Cl)c(C(F)(F)F)c3)cc2)ccn1 [sorafenib] + COc1ccc(COc2ccc(Cc3cnc(N)nc3N)cc2OC)cc1 [GW2580] (first compound 0.4 µM, partner dose 1 µM)",89%,23.1%,139%,116%,128%,144%,124%,92.9%,144%,130%,66.3%,106%,87.5%,69.7%,96.6%,64.3%
"Nc1ncn([C@H]2C[C@H](O)[C@@H](CO)O2)c(=O)n1 [decitabine] + Oc1cc(-c2nc(-c3ccccc3)[nH]c2-c2ccncc2)ccc1Cl [L779450] (first compound 0.1 µM, partner dose 0.2 µM)",57.9%,87.2%,59.8%,30.8%,131%,153%,33.5%,70.1%,414%,217%,142%,276%,91.9%,94.1%,123%,240%
"CS(=O)(=O)CCNCc1ccc(-c2ccc3ncnc(Nc4ccc(OCc5cccc(F)c5)c(Cl)c4)c3c2)o1 [lapatinib] + C[C@@H]1CCN(C(=O)CC#N)C[C@@H]1N(C)c1ncnc2[nH]ccc12 [CP690550] (first compound 0.8 µM, partner dose 1 µM)",111%,104%,67.9%,104%,72.7%,119%,253%,22.7%,67.5%,89.9%,96.7%,115%,88.3%,121%,93.8%,33.8%
